Measured values reported in PMC4015952.
No constants are given. Whether binding was seen depends on the method and setting. In cells and extracts the contact can be indirect. A result given as binding can be weak or reduced; the word gives no strength.

Target: T1, cellular AIMP1/p43 in HEK 293 cells (human (endogenous in HEK 293)) (UniProt Q12904)
T1 sequence: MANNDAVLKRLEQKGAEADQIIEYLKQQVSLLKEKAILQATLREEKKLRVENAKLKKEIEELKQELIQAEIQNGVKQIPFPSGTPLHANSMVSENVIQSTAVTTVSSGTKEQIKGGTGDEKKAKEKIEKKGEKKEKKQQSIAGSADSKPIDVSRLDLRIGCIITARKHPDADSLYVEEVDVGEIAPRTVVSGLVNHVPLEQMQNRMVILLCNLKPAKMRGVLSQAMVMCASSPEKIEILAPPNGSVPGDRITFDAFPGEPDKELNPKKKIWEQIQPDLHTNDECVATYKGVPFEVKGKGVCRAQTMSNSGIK
Assay: co-IP; transfected HEK 293 cells lysed in RIPA buffer after 36 hours; 2 µg antibody, 4°C, protein G; IgG as control; western blot

## V5-tagged E2 made from core-E1-E2 expressed from one plasmid (hepatitis C virus 2a type (JFH1))
  binding: binds
